The values below come from PMC9769526.

Results are given in words; binding and its absence hold for the method and conditions named. In cells and extracts the contact can be indirect. A yes stands for co-enrichment or nearness to the bait. Other partners may have been found. Tags and fused reporters may be left off the sequences shown.

The target in this assay is T1, AtrR-TAP fusion protein (full-length AtrR fused at its C terminus to the tandem affinity purification moiety) (Aspergillus fumigatus) (UniProt Q4WI89).
T1 sequence: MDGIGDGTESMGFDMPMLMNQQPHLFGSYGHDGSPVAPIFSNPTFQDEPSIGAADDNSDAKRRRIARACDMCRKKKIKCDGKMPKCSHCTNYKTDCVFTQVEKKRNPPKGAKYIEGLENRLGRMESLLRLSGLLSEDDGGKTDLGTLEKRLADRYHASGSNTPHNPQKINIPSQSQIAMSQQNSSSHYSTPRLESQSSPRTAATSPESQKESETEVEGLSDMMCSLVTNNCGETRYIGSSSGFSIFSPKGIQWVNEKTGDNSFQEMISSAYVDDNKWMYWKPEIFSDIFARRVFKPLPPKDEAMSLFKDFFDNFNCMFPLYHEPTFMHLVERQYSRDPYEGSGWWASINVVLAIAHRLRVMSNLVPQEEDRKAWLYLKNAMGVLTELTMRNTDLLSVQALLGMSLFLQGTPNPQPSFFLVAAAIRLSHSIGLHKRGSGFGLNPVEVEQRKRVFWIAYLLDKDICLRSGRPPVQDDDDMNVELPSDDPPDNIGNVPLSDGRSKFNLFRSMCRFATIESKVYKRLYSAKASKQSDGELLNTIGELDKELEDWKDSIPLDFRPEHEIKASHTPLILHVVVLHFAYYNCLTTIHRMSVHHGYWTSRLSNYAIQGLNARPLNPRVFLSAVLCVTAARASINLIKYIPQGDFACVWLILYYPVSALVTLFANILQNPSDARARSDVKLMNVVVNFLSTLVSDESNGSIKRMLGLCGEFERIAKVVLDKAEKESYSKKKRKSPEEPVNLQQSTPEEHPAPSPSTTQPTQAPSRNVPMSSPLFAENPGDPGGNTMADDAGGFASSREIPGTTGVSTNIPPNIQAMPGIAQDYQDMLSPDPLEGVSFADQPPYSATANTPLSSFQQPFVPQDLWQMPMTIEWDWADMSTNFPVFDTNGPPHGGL
The assay can be described thus: affinity purification with mass spectrometry; tandem affinity purification of AtrR-TAP from native A. fumigatus extracts (B250 buffer, 250 mM NaCl, 0.1% NP-40; IgG-Sepharose, TEV cleavage, calmodulin-Sepharose, EGTA elution), copurifying proteins detected by MudPIT.

B1: NcaA (nuclear coactivator of AtrR) (protein, UniProt Q4WN10 1-575)
chain: MAETTPSRPNDTPENSPGGGDDNQSQSAGQSKNPASVKDRKCQYCHQAFTSSSLGRHLDQYLFKKKPDGVHDVEEIRRIRSGITRRQARTSSGKRDTPERAMGKGPSEHFAGGEYGAKPREGAIRMMFNTPTWHATGVINDIPNPGQTPEGSRFATSQSRTGVIHLPDYASRGASAKDPDTMRALELALREVLDNIKAATSRMRPRLSPFDFDIQSETFPSLCLRLLPPPPSLFSTNPFPSPSSFPLKPPGVEHLDIVRQAIRAKIDQWQSDQLSTQSANNSPGRPPLGLDANMISRSAQQHEDMSLRHLELAFKHWASLPPETRLEAWHLEITRAFAREVEKRKTLDEQLARVQQEANQLRAQVEKLGSCQWPREFALFPPDTLPLPPAVARELDAKESQISPGSPRWDYDSVVAKWKRVVMHDKSMGRVGVGYGNPPLDDRSSADTKARATEEPPASAALASTSTSAPPSAHPPPRALQPAPGPALAASPDQSSSHTGGASAPSSQNTSPYLRSPQAGPQAKRPRLMNGADGGHTSAANPSATAPNTWNPHSHQSLPGSNLASASGPPPSSGA
With B1, the binding result was “binds”.
